{"source": "patent US20020068274A1", "about": "“Novel method for assessing recoding in vitro and in vivo” (priority 2000, published 2002)", "origin": "cited, not measured here", "note": "Some of these results come from one statement about several compounds together. At least one compound was matched to its structure with a doubt left. Some ranges recur; such a range may be that of the whole group of compounds.", "data": [{"test_system": "ribosomes", "settings": "independent of a programmed RNA signal; cited from earlier work", "values": [{"compound": "CN[C@@H]1[C@@H](O)[C@@H](O[C@@H]2[C@@H](O)[C@H](O[C@H]3O[C@H]([C@@H](C)O)[C@@H](O)[C@H](O)[C@H]3N)[C@@H](N)C[C@H]2N)OC[C@]1(C)O", "note": "[G418]", "frequency of stop codon readthrough": "1-20%"}, {"compound": "NC[C@@H]1O[C@H](O[C@H]2[C@@H](O)[C@H](O[C@@H]3[C@@H](O)[C@H](N)C[C@H](N)[C@H]3O[C@H]3O[C@H](CO)[C@@H](O)[C@H](O)[C@H]3N)O[C@@H]2CO)[C@H](N)[C@@H](O)[C@@H]1O", "note": "[paramomycin]", "frequency of stop codon readthrough": "1-20%"}, {"compound": "gentamicin", "frequency of stop codon readthrough": "1-20%"}]}]}
